US7186861B2 (priority 2002, dated 2007)
Some results were stated once for a whole list of compounds, not compound by compound.

How the values were obtained:
Type in all cases: in vivo
Phytophthora infestans = settings: 250 ppm active compound; tomato Große Fleischtomate St. Pierre; infected the day after spraying, assessed after 6 days; untreated plants 100% infected
Plasmopara viticola [1] = assay: Activity against downy mildew of grapes caused by Plasmopara viticola (inoculation on the following day); settings: 250 ppm active compound; potted vines Müller-Thurgau; inoculated the day after spraying; untreated plants 90% infected
Plasmopara viticola [2] = assay: Activity against downy mildew of grapes caused by Plasmopara viticola (lasting effect, inoculation 7 days after spraying); settings: 250 ppm active compound; potted vines, experimental conditions as in the comparative example (lasting effect); untreated plants 90% infected
Method: The active compounds were prepared, separately or together, as a 10% emulsion in a mixture of 70% by weight of cyclohexanone, 20% by weight of Nekanil® LN (Lutensol® AP6, wetting agent with an emulsifying and dispersing action based on ethoxylated alkylphenols) and 10% by weight of Wettol® EM (nonionic emulsifier based on ethoxylated castor oil) and were appropriately diluted with water to the desired concentration.
Leaves of potted vines of the variety “Müller-Thurgau” were sprayed to runoff point with an aqueous preparation of active compound prepared from a stock solution consisting of 10% of active compound, 85% of cyclohexanone and 5% of emulsifier. In order to be able to assess the lasting effects of the substances, the plants, after the spray coating had dried on, were placed in a greenhouse for 7 days. Only then were the leaves inoculated with an aqueous suspension of zoospores of Plasmopara viticola. The vines were then initially placed in a chamber saturated with water vapor at 24° C. for 48 hours and subsequently in a greenhouse at temperatures of between 20 and 30° C. for 5 days. After this period of time, the plants were once more placed in a humid chamber for 16 hours to accelerate the eruption of sporangiphores. The extent to which the infection had developed on the undersides of the leaves was then determined visually.

| SMILES | infection (Phytophthora infestans) | infection (Plasmopara viticola [1]) | infection (Plasmopara viticola [2]) |
| --- | --- | --- | --- |
| CCOc1ccc(CCNC(=O)C(=CC(C)CC)c2ccc(Br)cc2)cc1OC (stereo not drawn) [Compound I-223] | up to 15% | up to 7% | – |
| CCOc1ccc(CCNC(=O)C(=CC(C)(C)OC)c2ccc(Cl)cc2)cc1OC [Compound I-211] | up to 15% | up to 7% | – |
| COc1ccc(CCNC(=O)C(=CC(C)(C)OC)c2ccc(Br)cc2)cc1OC [Compound I-185] | up to 15% | up to 7% | – |
| COc1ccc(CCNC(=O)C(=CC2CC2)c2ccc(C)cc2)cc1OC [Compound I-198] | up to 15% | up to 7% | – |
| COc1ccc(CCNC(=O)C(=CC(C)(C)OC)c2ccc(C)c(Cl)c2)cc1OC [Compound I-184] | up to 15% | up to 7% | – |
| CCOc1ccc(CCNC(=O)C(=CC(C)(C)C)c2ccc(Cl)c(C)c2)cc1OC [Compound I-239] | up to 15% | up to 7% | – |
| CCOc1ccc(CCNC(=O)C(=CC(C)(C)OC)c2ccc(F)c(Cl)c2)cc1OC [Compound I-216] | up to 15% | up to 7% | – |
| CCC(C)C=C(C(=O)NCCc1ccc(OC)c(OC)c1)c1ccc(Cl)cc1 (stereo not drawn) [Compound I-195] | – | up to 7% | – |
| COc1ccc(CCNC(=O)C(=CC2CC2)c2ccc(Cl)c(C)c2)cc1OC [Compound I-240] | up to 15% | up to 7% | – |
| COc1ccc(CCNC(=O)C(=CC(C)(C)OC)c2ccc(C)cc2)cc1OC [Compound I-182] | up to 15% | up to 7% | – |
| COc1ccc(CCNC(=O)C(=CC(C)(C)OC)c2ccc(Cl)cc2)cc1OC [Compound I-180] | up to 15% | up to 7% | – |
| COc1ccc(CCNC(=O)C(=CC2CC2)c2ccc(Cl)cc2)cc1OC [Compound I-197] | up to 15% | up to 7% | – |
| CCOc1ccc(CCNC(=O)C(=CC2CC2)c2ccc(OC(F)(F)F)cc2)cc1OC [Compound I-156] | up to 15% | up to 7% | – |
| CCOc1ccc(CCNC(=O)C(=CC(C)C)c2ccc(Cl)c(C)c2)cc1OC [Compound I-238] | up to 15% | up to 7% | – |
| CCC(C=C(C(=O)NCCc1ccc(OC)c(OC)c1)c1ccc(OC)cc1)CC [Compound I-168] | – | up to 7% | – |
| COc1ccc(CCNC(=O)C(=CC(C)(C)OC)c2ccc(C(F)(F)F)cc2)cc1OC [Compound I-181] | up to 15% | up to 7% | – |
| CCOc1ccc(CCNC(=O)C(=CC(C)(C)OC)c2ccc(C)c(Br)c2)cc1OC [Compound I-212] | up to 15% | up to 7% | – |
| CCC=C(C(=O)NCCc1ccc(OC)c(OC)c1)c1ccc(Cl)c(C)c1 [Compound I-235] | up to 15% | up to 7% | – |
| CCOc1ccc(CCNC(=O)C(=CC2CC2)c2ccc(OC)cc2)cc1OC [Compound I-158] | up to 15% | up to 7% | – |
| CCOc1ccc(CCNC(=O)C(=CC(C)(C)OC)c2ccc(Br)c(F)c2)cc1OC [Compound I-217] | up to 15% | up to 7% | – |

| SMILES | infection (Phytophthora infestans) | infection (Plasmopara viticola [1]) | infection (Plasmopara viticola [2]) |
| --- | --- | --- | --- |
| CCOc1ccc(CCNC(=O)C(=CC(C)CC)c2ccc(Cl)cc2)cc1OC (stereo not drawn) [Compound I-224] | up to 15% | up to 7% | – |
| COc1ccc(CCNC(=O)C(=CC(C)C)c2ccc(Cl)c(C)c2)cc1OC [Compound I-237] | up to 15% | up to 7% | – |
| CCC(C)C=C(C(=O)NCCc1ccc(OC)c(OC)c1)c1ccc(C)cc1 (stereo not drawn) [Compound I-196] | – | up to 7% | – |
| CCOc1ccc(CCNC(=O)C(=CC(C)(C)OC)c2ccc(C)c(C)c2)cc1OC [Compound I-214] | up to 15% | up to 7% | – |
| COc1ccc(CCNC(=O)C(=CC(C)(C)C)c2ccc(C)cc2)cc1OC [Compound I-202] | up to 15% | up to 7% | – |
| CCC(C=C(C(=O)NCCc1ccc(OC)c(OC)c1)c1ccc(F)c(Cl)c1)CC [Compound I-171] | – | up to 7% | – |
| COc1ccc(CCNC(=O)C(=CC2CC2)c2ccc(Br)c(F)c2)cc1OC [Compound I-199] | up to 15% | up to 7% | – |
| COc1ccc(CCNC(=O)C(=CC(C)(C)OC)c2ccc(F)cc2)cc1OC [Compound I-186] | – | up to 7% | – |
| CCOc1ccc(CCNC(=O)C(=CC(C)CC)c2ccc(C(F)(F)F)cc2)cc1OC (stereo not drawn) [Compound I-225] | – | up to 7% | – |
| CCOc1ccc(CCNC(=O)C(=CC(C)(C)OC)c2cccc(OC)c2)cc1OC [Compound I-215] | up to 15% | up to 7% | – |
| CCOc1ccc(CCNC(=O)C(=CC(C)CC)c2ccc(C)cc2)cc1OC (stereo not drawn) [Compound I-230] | up to 15% | up to 7% | – |
| CCOc1ccc(CCNC(=O)C(=CC(C)(C)OC)c2ccc(C)cc2)cc1OC [Compound I-210] | up to 15% | up to 7% | – |
| CCOc1ccc(CCNC(=O)C(=CC(C)(C)OC)c2ccc(OC)c(C)c2)cc1OC [Compound I-221] | up to 15% | up to 7% | – |
| COc1ccc(CCNC(=O)C(=CC2CCCC2)c2ccc(Br)c(C)c2)cc1OC [Compound I-207] | – | up to 7% | – |
| CCOc1ccc(CCNC(=O)C(=CC2CCCC2)c2ccc(Br)cc2)cc1OC [Compound I-204] | – | up to 7% | – |
| CCC=C(C(=O)NCCc1ccc(OC)c(OC)c1)c1ccc(Br)c(Cl)c1 [Compound I-232] | up to 15% | up to 7% | – |
| CCOc1ccc(CCNC(=O)C(=CC(C)(C)OC)c2ccc(OC(F)(F)F)cc2)cc1OC [Compound I-222] | – | up to 7% | – |
| COc1ccc(CCNC(=O)C(=CC(C)(C)OC)c2ccc(C(C)(C)C)cc2)cc1OC [Compound I-183] | – | up to 7% | – |
| COc1ccc(CCNC(=O)C(=CC(C)(C)C)c2ccc(Br)c(C)c2)cc1OC [Compound I-203] | up to 15% | up to 7% | – |
| COc1ccc(CCNC(=O)C(=CC2CC2)c2ccc(C)c(Cl)c2)cc1OC [Compound I-200] | up to 15% | up to 7% | – |

| SMILES | infection (Phytophthora infestans) | infection (Plasmopara viticola [1]) | infection (Plasmopara viticola [2]) |
| --- | --- | --- | --- |
| CCOc1ccc(CCNC(=O)C(=CC(C)(C)OC)c2ccc(CC)cc2)cc1OC [Compound I-218] | up to 15% | up to 7% | – |
| CCOc1ccc(CCNC(=O)C(=CC2CC2)c2ccc(Br)cc2)cc1OC [Compound I-154] | up to 15% | up to 7% | – |
| CCOc1ccc(CCNC(=O)C(=CC2CC2)c2ccc(C)c(Cl)c2)cc1OC [Compound I-157] | up to 15% | up to 7% | – |
| CCOc1ccc(CCNC(=O)C(=CC(C)CC)c2ccc(C)c(Br)c2)cc1OC (stereo not drawn) [Compound I-228] | up to 15% | up to 7% | – |
| CCOc1ccc(CCNC(=O)C(=CC(C)(C)OC)c2ccc(C(F)(F)F)cc2)cc1OC [Compound I-209] | up to 15% | up to 7% | – |
| CCC=C(C(=O)NCCc1ccc(OCC)c(OC)c1)c1ccc(Cl)c(C)c1 [Compound I-236] | up to 15% | up to 7% | – |
| CCC(C)C=C(C(=O)NCCc1ccc(OC)c(OC)c1)c1ccc(Br)cc1 (stereo not drawn) [Compound I-189] | – | up to 7% | – |
| CCOc1ccc(CCNC(=O)C(=CC(C)CC)c2ccc(OC)c(C)c2)cc1OC (stereo not drawn) [Compound I-227] | – | up to 7% | – |
| CCC(C)C=C(C(=O)NCCc1ccc(OC)c(OC)c1)c1ccc(C(F)(F)F)cc1 (stereo not drawn) [Compound I-194] | – | up to 7% | – |
| COc1ccc(CCNC(=O)C(=CC2CC2)c2ccc(Br)c(Cl)c2)cc1OC [Compound I-231] | up to 15% | up to 7% | – |
| CCOc1ccc(CCNC(=O)C(=CC2CC2)c2ccc(C(F)(F)F)cc2)cc1OC [Compound I-155] | up to 15% | up to 7% | – |
| CCOc1ccc(CCNC(=O)C(=CC2CC2)c2ccc(Cl)cc2)cc1OC [Compound I-150] | up to 15% | up to 7% | – |
| CCOc1ccc(CCNC(=O)C(=CC2CC2)c2ccc(C)c(C)c2)cc1OC [Compound I-153] | up to 15% | up to 7% | – |
| CCOc1ccc(CCNC(=O)C(=CC2CC2)c2ccc(Cl)c(Cl)c2)cc1OC [Compound I-151] | up to 15% | up to 7% | – |
| CCOc1ccc(CCNC(=O)C(=CC(C)(C)OC)c2ccc(F)cc2)cc1OC [Compound I-219] | – | up to 7% | – |
| COc1ccc(CCNC(=O)C(=CC(C)C)c2ccc(Br)cc2)cc1OC [Compound I-52] | up to 15% | – | up to 15% |
| CCOc1ccc(CCNC(=O)C(=CC(C)(C)C)c2ccc(C(C)C)cc2)cc1OC [Compound I-68] | up to 15% | – | up to 15% |
| CCC=C(C(=O)NCCc1ccc(OC)c(OC)c1)c1cccc(OC)c1 [Compound I-11] | up to 15% | – | up to 15% |
